Reference: the supplement of paper PMC12823440, “Inhibitors supercharge kinase turnover through native proteolytic circuits” (Nature, 2025)
Some of the results follow. The calls rarely recur for the same compound in another form.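 Kinases, fused to nanoluciferase, were expressed in K562 cells; luminescence was measured every 4 h from 2 to 18 h as percent of control (DMSO = 100%, positive control = 0%). A time point is decreased if signal falls significantly (2 sigma). Hits were called by the authors by a rule that is not shown; the count of time points alone does not decide it.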

Sequences of proteins named here, by UniProt entry; tags and fusion partners are left off. A change or cut given only in a name is not applied to a line headed by its entry.
UniProt P09619, whole entry: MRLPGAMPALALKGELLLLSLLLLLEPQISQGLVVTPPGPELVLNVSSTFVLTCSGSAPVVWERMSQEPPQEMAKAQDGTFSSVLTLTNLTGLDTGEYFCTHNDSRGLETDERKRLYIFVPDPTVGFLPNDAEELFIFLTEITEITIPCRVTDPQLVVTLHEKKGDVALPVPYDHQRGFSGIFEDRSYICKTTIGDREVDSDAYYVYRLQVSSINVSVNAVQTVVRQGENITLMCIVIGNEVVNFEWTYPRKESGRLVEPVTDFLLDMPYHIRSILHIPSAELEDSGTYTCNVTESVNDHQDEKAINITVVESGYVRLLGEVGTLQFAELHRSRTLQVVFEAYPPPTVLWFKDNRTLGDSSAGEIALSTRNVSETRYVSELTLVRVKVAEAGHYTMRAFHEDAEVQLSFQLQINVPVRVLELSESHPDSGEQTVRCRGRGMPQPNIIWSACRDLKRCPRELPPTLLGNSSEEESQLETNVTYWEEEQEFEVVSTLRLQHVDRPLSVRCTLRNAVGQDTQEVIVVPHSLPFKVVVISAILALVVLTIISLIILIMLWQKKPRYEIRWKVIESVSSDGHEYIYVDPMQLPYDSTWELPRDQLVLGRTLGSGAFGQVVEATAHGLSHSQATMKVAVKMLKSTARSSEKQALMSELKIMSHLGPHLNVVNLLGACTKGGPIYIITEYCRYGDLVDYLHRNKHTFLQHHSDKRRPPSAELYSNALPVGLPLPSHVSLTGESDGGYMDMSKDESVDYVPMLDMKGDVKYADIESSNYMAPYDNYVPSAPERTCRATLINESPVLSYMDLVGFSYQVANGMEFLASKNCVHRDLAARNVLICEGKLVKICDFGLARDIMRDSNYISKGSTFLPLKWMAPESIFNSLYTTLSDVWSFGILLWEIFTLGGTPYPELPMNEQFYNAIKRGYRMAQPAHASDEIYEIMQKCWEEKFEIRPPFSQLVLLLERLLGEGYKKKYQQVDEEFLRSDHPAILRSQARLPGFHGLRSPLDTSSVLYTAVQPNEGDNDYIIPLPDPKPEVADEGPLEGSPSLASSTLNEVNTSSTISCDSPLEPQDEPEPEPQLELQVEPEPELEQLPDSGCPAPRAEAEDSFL
UniProt Q9UM73: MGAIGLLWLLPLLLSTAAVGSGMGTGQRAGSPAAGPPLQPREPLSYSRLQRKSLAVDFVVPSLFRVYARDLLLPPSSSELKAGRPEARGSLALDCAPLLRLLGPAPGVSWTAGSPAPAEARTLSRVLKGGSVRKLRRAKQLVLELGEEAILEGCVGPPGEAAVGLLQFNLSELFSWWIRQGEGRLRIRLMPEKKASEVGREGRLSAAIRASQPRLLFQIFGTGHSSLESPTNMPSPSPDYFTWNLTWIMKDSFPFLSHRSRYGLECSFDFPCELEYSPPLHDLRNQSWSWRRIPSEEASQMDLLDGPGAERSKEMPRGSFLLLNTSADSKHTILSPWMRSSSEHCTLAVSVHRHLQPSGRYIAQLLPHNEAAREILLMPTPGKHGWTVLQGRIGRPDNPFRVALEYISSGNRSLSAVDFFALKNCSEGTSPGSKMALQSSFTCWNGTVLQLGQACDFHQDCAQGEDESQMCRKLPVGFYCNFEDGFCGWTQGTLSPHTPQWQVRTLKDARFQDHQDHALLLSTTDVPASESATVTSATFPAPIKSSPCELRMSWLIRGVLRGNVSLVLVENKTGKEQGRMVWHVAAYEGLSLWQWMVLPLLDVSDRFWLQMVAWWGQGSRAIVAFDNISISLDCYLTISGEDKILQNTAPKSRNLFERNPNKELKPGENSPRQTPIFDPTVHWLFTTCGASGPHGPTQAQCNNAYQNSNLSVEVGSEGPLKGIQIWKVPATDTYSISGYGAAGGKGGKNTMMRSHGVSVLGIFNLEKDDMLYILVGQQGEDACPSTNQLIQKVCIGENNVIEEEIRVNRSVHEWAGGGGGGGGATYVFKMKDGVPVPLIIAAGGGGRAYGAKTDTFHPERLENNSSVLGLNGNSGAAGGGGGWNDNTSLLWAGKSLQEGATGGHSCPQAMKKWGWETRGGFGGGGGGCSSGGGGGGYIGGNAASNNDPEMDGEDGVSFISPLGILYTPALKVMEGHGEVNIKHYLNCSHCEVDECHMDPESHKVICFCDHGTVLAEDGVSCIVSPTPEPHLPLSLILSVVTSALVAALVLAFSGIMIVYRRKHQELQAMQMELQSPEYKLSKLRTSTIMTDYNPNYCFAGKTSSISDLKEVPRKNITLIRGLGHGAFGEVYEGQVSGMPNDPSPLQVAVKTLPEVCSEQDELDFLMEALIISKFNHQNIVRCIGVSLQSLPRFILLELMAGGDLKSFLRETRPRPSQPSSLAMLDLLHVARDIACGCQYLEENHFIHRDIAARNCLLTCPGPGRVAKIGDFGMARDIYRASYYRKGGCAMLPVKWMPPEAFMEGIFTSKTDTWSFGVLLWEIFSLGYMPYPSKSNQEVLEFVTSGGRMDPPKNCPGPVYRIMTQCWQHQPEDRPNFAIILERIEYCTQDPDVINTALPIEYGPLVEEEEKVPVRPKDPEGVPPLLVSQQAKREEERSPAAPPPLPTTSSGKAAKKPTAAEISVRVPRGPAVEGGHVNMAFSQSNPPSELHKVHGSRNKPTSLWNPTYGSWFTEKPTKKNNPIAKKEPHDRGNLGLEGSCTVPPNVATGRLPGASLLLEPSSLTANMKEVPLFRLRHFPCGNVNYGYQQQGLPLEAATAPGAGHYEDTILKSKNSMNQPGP
UniProt P29317, whole entry: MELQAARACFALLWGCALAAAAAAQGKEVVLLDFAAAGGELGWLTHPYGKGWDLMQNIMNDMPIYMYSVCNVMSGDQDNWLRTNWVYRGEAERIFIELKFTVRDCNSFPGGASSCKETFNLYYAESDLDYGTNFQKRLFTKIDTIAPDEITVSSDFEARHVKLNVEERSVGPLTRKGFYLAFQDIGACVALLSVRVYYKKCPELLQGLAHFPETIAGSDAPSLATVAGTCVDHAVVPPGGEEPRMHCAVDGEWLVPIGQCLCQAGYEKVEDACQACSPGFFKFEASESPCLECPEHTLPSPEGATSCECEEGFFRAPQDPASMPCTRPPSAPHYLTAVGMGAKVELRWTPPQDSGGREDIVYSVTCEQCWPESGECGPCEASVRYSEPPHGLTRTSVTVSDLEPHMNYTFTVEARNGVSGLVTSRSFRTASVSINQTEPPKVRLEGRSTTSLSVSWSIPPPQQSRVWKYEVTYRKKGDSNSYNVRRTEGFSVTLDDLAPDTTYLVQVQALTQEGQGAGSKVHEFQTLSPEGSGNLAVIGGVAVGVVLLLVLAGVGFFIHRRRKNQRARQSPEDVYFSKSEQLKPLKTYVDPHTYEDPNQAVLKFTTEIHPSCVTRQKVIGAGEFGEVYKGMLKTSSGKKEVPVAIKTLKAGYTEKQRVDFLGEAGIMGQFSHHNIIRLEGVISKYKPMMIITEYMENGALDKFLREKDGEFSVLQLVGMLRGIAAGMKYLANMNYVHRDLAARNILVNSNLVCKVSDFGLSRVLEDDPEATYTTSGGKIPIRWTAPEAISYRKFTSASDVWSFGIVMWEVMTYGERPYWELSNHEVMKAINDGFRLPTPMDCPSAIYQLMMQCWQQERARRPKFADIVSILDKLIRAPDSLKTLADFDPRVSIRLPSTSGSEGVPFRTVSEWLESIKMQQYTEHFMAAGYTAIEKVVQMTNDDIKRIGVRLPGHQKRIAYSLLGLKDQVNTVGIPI
UniProt P07333, whole entry: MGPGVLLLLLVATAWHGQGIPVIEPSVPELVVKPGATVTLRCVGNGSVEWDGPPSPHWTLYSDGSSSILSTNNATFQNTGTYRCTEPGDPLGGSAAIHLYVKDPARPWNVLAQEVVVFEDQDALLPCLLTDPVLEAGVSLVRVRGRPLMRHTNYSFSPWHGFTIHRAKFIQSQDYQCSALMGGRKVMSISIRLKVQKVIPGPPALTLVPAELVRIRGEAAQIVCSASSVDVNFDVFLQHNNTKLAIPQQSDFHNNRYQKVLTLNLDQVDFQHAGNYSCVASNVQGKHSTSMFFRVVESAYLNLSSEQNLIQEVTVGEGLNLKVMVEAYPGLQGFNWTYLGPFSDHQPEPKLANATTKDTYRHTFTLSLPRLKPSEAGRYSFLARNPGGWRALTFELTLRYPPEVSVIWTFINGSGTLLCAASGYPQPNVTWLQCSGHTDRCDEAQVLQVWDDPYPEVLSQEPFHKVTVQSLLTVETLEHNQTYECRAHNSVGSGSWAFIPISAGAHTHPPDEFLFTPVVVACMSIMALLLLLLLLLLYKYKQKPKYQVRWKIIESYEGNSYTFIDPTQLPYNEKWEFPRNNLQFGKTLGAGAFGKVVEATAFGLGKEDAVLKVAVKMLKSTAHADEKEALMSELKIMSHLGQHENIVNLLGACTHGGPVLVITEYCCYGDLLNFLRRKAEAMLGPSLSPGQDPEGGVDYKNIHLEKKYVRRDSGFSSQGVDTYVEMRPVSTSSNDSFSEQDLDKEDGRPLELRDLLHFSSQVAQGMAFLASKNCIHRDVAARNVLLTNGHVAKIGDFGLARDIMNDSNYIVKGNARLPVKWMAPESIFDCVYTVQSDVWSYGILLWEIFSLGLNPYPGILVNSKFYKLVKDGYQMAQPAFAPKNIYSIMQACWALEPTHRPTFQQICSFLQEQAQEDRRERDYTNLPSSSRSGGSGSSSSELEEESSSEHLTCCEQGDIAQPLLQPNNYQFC
UniProt Q05397, whole entry, looked up: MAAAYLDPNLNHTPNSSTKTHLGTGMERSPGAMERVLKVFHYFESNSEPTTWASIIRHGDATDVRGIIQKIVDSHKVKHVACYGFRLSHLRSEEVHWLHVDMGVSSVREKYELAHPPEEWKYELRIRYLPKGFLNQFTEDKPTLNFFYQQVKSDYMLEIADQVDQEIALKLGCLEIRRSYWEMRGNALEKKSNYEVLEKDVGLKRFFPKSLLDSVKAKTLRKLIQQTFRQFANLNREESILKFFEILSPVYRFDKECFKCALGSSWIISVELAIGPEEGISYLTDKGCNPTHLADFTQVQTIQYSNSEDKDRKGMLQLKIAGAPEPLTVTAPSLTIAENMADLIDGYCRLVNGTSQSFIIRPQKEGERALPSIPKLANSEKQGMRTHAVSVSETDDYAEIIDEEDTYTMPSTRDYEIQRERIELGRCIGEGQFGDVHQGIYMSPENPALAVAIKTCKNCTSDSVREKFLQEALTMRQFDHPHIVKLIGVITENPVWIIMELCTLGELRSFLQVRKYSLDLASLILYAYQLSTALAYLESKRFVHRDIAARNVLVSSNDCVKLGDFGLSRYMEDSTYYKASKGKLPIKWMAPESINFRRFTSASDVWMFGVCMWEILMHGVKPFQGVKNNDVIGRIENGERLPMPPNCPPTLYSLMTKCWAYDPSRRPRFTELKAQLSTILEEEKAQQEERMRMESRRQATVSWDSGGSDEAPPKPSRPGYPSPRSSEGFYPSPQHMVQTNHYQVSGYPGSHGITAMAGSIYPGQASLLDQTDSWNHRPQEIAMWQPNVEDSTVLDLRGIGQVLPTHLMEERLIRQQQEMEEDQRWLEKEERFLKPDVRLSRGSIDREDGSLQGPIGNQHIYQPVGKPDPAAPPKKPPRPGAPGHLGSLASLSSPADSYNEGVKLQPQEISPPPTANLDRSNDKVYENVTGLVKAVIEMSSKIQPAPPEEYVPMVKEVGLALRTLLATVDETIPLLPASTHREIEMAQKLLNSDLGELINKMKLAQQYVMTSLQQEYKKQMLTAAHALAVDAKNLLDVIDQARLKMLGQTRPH
UniProt Q12851: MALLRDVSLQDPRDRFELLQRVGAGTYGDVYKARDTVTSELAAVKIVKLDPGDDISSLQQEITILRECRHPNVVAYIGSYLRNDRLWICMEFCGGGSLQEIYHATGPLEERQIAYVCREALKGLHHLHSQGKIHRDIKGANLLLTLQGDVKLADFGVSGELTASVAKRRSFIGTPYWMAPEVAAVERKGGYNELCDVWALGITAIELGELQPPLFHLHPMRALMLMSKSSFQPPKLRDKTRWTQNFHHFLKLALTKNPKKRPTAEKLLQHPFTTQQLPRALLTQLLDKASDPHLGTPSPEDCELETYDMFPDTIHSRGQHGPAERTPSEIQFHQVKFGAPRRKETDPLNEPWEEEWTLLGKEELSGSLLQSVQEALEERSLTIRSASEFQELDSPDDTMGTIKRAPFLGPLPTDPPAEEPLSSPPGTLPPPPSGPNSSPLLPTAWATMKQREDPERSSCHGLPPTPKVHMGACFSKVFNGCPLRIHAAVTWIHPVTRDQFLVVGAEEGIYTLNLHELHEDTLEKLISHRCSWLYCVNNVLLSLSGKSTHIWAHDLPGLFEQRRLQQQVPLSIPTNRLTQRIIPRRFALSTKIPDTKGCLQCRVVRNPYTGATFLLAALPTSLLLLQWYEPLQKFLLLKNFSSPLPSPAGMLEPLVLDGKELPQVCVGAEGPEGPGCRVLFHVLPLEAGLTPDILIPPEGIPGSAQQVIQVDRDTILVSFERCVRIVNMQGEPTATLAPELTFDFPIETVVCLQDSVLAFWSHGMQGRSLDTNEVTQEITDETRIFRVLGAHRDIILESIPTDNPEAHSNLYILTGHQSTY

Legend:
Test in all cases: number of time points (of 5) at which kinase-Nluc abundance scored as decreased, DMSO-normalised (count); higher = more persistent destabilization
[1] = compound: COc1cc(N2CCC(N3CCN(C)CC3)CC2)ccc1Nc1ncc(Cl)c(Nc2ccccc2S(=O)(=O)C(C)C)n1; settings: 2.5 µM; K562; 2-18 h
[2] = compound: COc1cc(N2CCN(C)CC2)ccc1Nc1nccc(-c2cn(C)c3cnccc23)n1; settings: 10 µM; K562; 2-18 h
Bosutinib = compound: COc1cc(Nc2c(C#N)cnc3cc(OCCCN4CCN(C)CC4)c(OC)cc23)c(Cl)cc1Cl [Bosutinib]; settings: 2.5 µM; K562; 2-18 h
[3] = compound: COc1ccc(-c2c[nH]c3nccc(-c4ccsc4)c23)c(OC)c1; settings: 10 µM; K562; 2-18 h
[4] = compound: COc1ccc(-c2cc(C(=O)NN=C(C)c3ccc(OC)c(OC)c3)[nH]n2)cc1; settings: 10 µM; K562; 2-18 h
Sorafenib = compound: CNC(=O)c1cc(Oc2ccc(NC(=O)Nc3ccc(Cl)c(C(F)(F)F)c3)cc2)ccn1 [Sorafenib]; settings: 2.5 µM; K562; 2-18 h
Vandetanib = compound: COc1cc2/c(=N/c3ccc(Br)cc3F)nc[nH]c2cc1OCC1CCN(C)CC1 [Vandetanib]; settings: 2.5 µM; K562; 2-18 h
[5] = compound: COc1cc2ncnc(Nc3cccc(Br)c3)c2cc1OC; settings: 10 µM; K562; 2-18 h
Gefitinib = compound: COc1cc2ncnc(Nc3ccc(F)c(Cl)c3)c2cc1OCCCN1CCOCC1 [Gefitinib]; settings: 10 µM; K562; 2-18 h

Row | Target | number of time points [1] | number of time points [2] | number of time points (Bosutinib) | number of time points [3] | number of time points [4] | number of time points (Sorafenib) | number of time points (Vandetanib) | number of time points [5] | number of time points (Gefitinib)
1 | EGFR_T790M (UniProt P00533) | 0 | 0 | 0 | 0 | 0 |  |  |  | 
2 | RIPK2 (UniProt O43353) | 0 | 0 | 1 | 0 | 0 | 0 | 0 | 0 | 
3 | ABL1 (UniProt P00519) | 0 | 0 |  |  | 3 |  |  |  | 
4 | MAP2K2 (UniProt P36507) | 0 | 0 | 0 | 0 | 0 | 0 |  | 0 | 0
5 | AURKA (UniProt O14965) | 0 | 0 | 1 | 0 | 0 | 0 |  | 0 | 0
6 | PDGFRB (UniProt P09619) | 0 | 0 | 0 | 0 | 1 | 2 |  |  | 0
7 | ZAK (UniProt Q9NYL2) | 0 | 0 |  | 0 | 0 | 0 |  | 0 | 0
8 | ALK (UniProt Q9UM73) |  | 0 | 0 | 0 | 1 | 0 |  | 0 | 0
9 | EPHA2 (UniProt P29317) | 0 | 0 |  | 0 | 0 | 0 | 0 | 0 | 0
10 | EGFR_G719S_T790M (UniProt P00533) | 0 | 0 | 0 | 2 | 0 |  |  |  | 
11 | BMX (UniProt P51813) |  | 0 |  | 2 | 0 | 0 | 0 |  | 2
12 | EGFR_G719S (UniProt P00533) | 0 | 0 | 1 | 0 | 2 |  |  |  | 
13 | RET_M918T (clone: RET_mut) (UniProt P07949) |  | 0 | 0 | 0 | 0 | 0 |  | 0 | 0
14 | EGFR_L858R (UniProt P00533) | 0 | 0 | 0 | 0 | 0 |  |  |  | 
15 | NTRK3 (UniProt Q16288) | 0 | 0 |  | 0 | 0 |  | 0 | 0 | 0
16 | FGFR1 (UniProt P11362) | 0 | 0 | 1 | 0 | 2 | 0 |  |  | 0
17 | AURKB (UniProt Q96GD4) | 0 | 0 | 0 | 0 | 0 |  | 0 | 0 | 0
18 | LYN (UniProt P07948) | 0 | 0 | 0 |  | 1 | 0 | 0 | 0 | 0
19 | FLT3 (UniProt P36888) |  | 0 | 3 | 1 | 0 | 0 | 0 | 0 | 0
20 | FGFR3 (UniProt P22607) | 0 | 0 | 0 | 0 | 0 | 0 |  | 0 | 0
21 | EGFR_L718V (UniProt P00533) | 0 | 0 | 0 | 0 | 0 |  |  |  | 
22 | CSF1R (UniProt P07333) | 0 | 0 | 0 |  | 5 |  |  | 0 | 0
23 | EGFR_L861Q (UniProt P00533) | 0 | 0 | 2 | 2 | 1 |  |  |  | 
24 | PTK2 (UniProt Q05397) | 0 | 0 | 1 | 0 | 0 | 0 | 1 |  | 1
25 | MAP4K2 (UniProt Q12851) | 0 | 0 | 0 | 0 | 0 | 0 |  | 0 | 0
26 | RET (UniProt P07949) |  | 0 | 0 | 0 | 1 | 0 |  | 0 | 
27 | HER2 (UniProt P04626) | 2 | 0 | 1 | 0 | 5 | 0 | 0 |  | 5
28 | SRC (UniProt P12931) | 0 | 0 | 0 | 0 | 0 |  | 0 | 0 | 
29 | AURKC (UniProt Q9UQB9) | 0 |  | 0 | 0 | 0 | 0 |  | 0 | 0

Records 4–11 from above:
Row | Target | number of time points [1] | number of time points [2] | number of time points (Bosutinib) | number of time points [3] | number of time points [4] | number of time points (Sorafenib) | number of time points (Vandetanib) | number of time points [5] | number of time points (Gefitinib)
4 | MAP2K2 (UniProt P36507) | 0 | 0 | 0 | 0 | 0 | 0 |  | 0 | 0
5 | AURKA (UniProt O14965) | 0 | 0 | 1 | 0 | 0 | 0 |  | 0 | 0
6 | PDGFRB (UniProt P09619) | 0 | 0 | 0 | 0 | 1 | 2 |  |  | 0
7 | ZAK (UniProt Q9NYL2) | 0 | 0 |  | 0 | 0 | 0 |  | 0 | 0
8 | ALK (UniProt Q9UM73) |  | 0 | 0 | 0 | 1 | 0 |  | 0 | 0
9 | EPHA2 (UniProt P29317) | 0 | 0 |  | 0 | 0 | 0 | 0 | 0 | 0
10 | EGFR_G719S_T790M (UniProt P00533) | 0 | 0 | 0 | 2 | 0 |  |  |  | 
11 | BMX (UniProt P51813) |  | 0 |  | 2 | 0 | 0 | 0 |  | 2
